These are yes or no findings as the source states them, for the method shown. In cells and extracts the contact can be indirect. These calls come from enrichment with a bait or labelling near it, and not all partners need be listed.
B1: E(y)2/ENY2 (protein, UniProt Q9VYX1 1-101)
chain: MSTSGAVDQYTVLTGDRSKIKDLLCSRLTECGWRDEVRLMCRNILMEKGTNNSFTVEQLIAEVTPKARTLVPDAVKKELLMKIRTILTEIEEEPDEPEDES
B2: Bre1 (protein, UniProt Q9VRP9 1-1044)
chain: MSKRSADDATGSSCLVAAAAAGQPPIKKVHFEPHLIGPVSTLEEMDIKVLEFQNKKLAQRIEQRMRTEAELRHRIEQLEKRQTQDDAVLNVVNRYWNQLNEDIRVLLQRFDAETADELENRNENEVTTSFLAQLSTWDKEELDEKLANRVQVSKRAVAKIVQVIDRLMQRNEKITHVLKGDSLASAGSGSGAGAGGEEEQQQASGDAETTTSSAGVHALEETLKQTHIEIMSENHKLQNLNTSLHEKFHTMSLKMKEYQDAHTAKETENAELKNQIDELQYDLEKIHCRNDKLENHLAEAIEKLKAYHQIYGDPNKSTNSAKTPTTTGSGGATTSVNSQLLEELQKELEEYRELANNRLQELDKLHATHRETLKEVEKLKMDIRQLPESVIVETTEYKCLQSQFSVLYNESMQIKTMLDETRNQLQTSKNQHLRQIEVMESEELIAQKKVRSEMIQMEDVLALIRKEYETLRIEFEQNMAANEQTAPINREMRHLITSLQNHNGQLKGEVQRYKRKYKDTSTDNLKLRQELADALATLEGNKLQAATGAAGEEIKQENSTGVKEENSNNVSASGQTNQTNSGNDTNVAIKEENHISAEDEADDEASGKDVKDGIKQEKLSSGDAAAAEKKDSPGPGNSTSSATNSVPVKNEKDSKDGVKGKDVKAVESETVRDLKAQLKKALNDQKEMKLLLDMYKGVSKDQRDKVQLMATEKKLRSEIEELRQQLKKLQESKREERKKLADEEALRKIKQLEEQKYELQKQMANHKPTDNSWGSGAPGTANYTRPFVGSHEEEALLNEMEVTGQAFEDMQEQNSRLIQQLREKDDANFKLMSERIKANQLHKLLREEKTVLEDQMATATTQIEAMHIVLRKLEEKERSLQATVASIEKELMLRQQAMEMHKRKAIESAQSAADLKLHLEKYHAQMKEAQQVVAEKTSSLEAEAYKTKRLQEELAQFKRKAERMKKMEMSGTTIDEVMIEEIREYKETLTCPSCKVKRKDAVLSKCFHVFCYDCLRTRYETRQRKCPKCNCAFGANDYHRLYLQ
B3: Lola/BTB-IV (protein, UniProt P42283 1-891)
chain: MDDDQQFCLRWNNHQSTLISVFDTLLENETLVDCTLAAEGKFLKAHKVVLSACSPYFATLLQEQYDKHPIFILKDVKYQELRAMMDYMYRGEVNISQDQLAALLKAAESLQIKGLSDNRTGGGVAPKPESSGHHRGGKLSGAYTLEQTKRARLATGGAMDTSGDVSGSREGSSSPSRRRRKVRRRSMENDAHDNSNSSVLQAAASNQSILQQTGAGLAVSALVTTQLSSGPAAGTSSQASSTQQQQPLTSTNVTKKTESAKLTSSTAAPASGASASAAVQQAHLHQQQAQTTSDAINTENVQAQSQGGAQGVQGDDEDIDEGSAVGGPNSATGPNPASASASAVHAGVVVKQLASVVDKSSSNHKHKIKDNSVSSVGSEMVIEPKAEYDDDAHDENVEDLTLDEEDMTMEELDQTAGTSQGGEGSSQTYATWQHDRSQDELGLMAQDAQQRDPQDLSRKENTAPDVASTAEIQRSFQRSILNGKQRDEQKIQLPGSRRKRLSVTEVSDMLFEFYKTKSAKVPKAEQPHRQVSPTSGEILDPSTISAIAVYGTASETASKNLNADEVMRVQNATATRVVGAAAGAAASFHPRPKYTLKTAASSTEHTTAIPTSVLVANSAAALTPKPQAAVIAEALMRNGLHNFQQQLRAQEILRQQTPHRRIKEENDVEIAGGDITPTKILENLLRKQQERDLRHSECENEPGYSTEDDEEGRYHAFDDIHLMEQSGGKFGNNSGMGMFNANAHGGSASSILDAHQAFRNLEFTLSDYGGSSSNGSTTSPNGIGLDGEPVYECRHCGKKYRWKSTLRRHENVECGGKEPSHQCPYCPYKSKQRGNLGVHVRKHHTDLPQLPSKRRSKYSMNRENGMSGSMSDDSQGKLIIDFNGKGELETK
B4: Batman (Lolal) (protein, UniProt Q7KRI2 1-127)
chain: MMSSDQQFFLKWNDFQTNMVTSFRHLRDEKSFTDVTLACEGQTCKAHKMVLSACSPYFKALLEENPSKHPIIILKDVSYIHLQAILEFMYAGEVNVSQEQLPAFLKTADRLKVKGLAETPSSIKREG
B5: Pita (protein, UniProt Q95RQ8 1-683)
chain: MAAKLEVREAMLTEKRVCRFCLTEQKLASIFEENPRVKTTANLPLQIMAITAIEVYAGDGMPGHICLECRLLFEHCYRFKQMCKRAETLLRQYPLTGNWPSPLEKPRAPMTMVASKKLLVVPAKTAEPSETPKKLLNTMAKSSSQVIIEDVQVLESAMVTPRTVAGSSPVPRRSHAYELKVDNNQELSMDDVQSMLEDMASELEKEFPDIPQKASPVKPKVLNKSSIRILNKGPAAPVEPRLATPKVKRDDSGNVAIVTEVLDSDLPLDDQDDPTKNAEKVATDVFPCPDCERSFPLQQLLEIHRLNHTRSRSFQCLLCEKSFFSKYDLAKHNFVHTGERPFKCAICSKAFTRKALLHRHERTHTDVPKFICVYCEKPFLSRQEMEKHAERHQKKRPFQCGVCTKSFAFKQGLERHETVHSTNLPFPCQHCERSFSTASKLARHLVAHAGKRAYPCKYCHKSYMLSHHLSRHLRTHTQTSDASFVCSECKVSYSNYNDLLDHALIHATASLKCPMCRKQIEDIDSVESHMDQHKQSERHACEFCDHIFLTQKCLQRHIEDDHVVEMEPYQNEFEDDGEGEGGVDEKEEHLDDFEDMDNVKQEEFVTEYLEDDALYEDHLDDSDESFTPPPPKQRKTNPPKDAQQSVRQTRSRDAQRITQKTGKNEGKPHHKLERNLKNRRSAK
B6: Su(Hw) (protein, UniProt P08970 1-941)
chain: MSASKEGKEKKGKLLGVENISPPKDKRPATRMKLLNDVGAGEDSEASTTTTTSRTPSNKQEKRGSVAGSRIKILNEEILGTPKTEKRGATKSTAPAASTVKILNEKKTPSATVTAVETTKIKTSPSKRKKMEHYVLQAVKSENTKADTTVTVVTEEDDTIDFILADDEEVVPGRIENNNGQEIVVTEDDEDLGEDGDEDGEDSSGKGNSSQTKIKEIVEHVCGKCYKTFRRVQSLKKHLEFCRYDSGYHLRKADMLKNLEKIEKDAVVMEKKDICFCCSESYDTFHLGHINCPDCPKSFKTQTSYERHIFITHSEFSDFPCSICNANLRSEALLALHEEQHKSRGKPYACKICGKDFTRSYHLKRHQKYSSCSSNETDTMSCKVCDRVFYRLDNLRSHLKQHLGTQVVKKPEYMCHTCKNCFYSLSTLNIHIRTHTGEKPFDCDLCDKKFSALVALKKHRRYHTGEKPYSCTVCNQAFAVKEVLNRHMKRHTGERPHKCDECGKSFIQATQLRTHSKTHIRPFPCEQCDEKFKTEKQLERHVKTHSRTKRPVFSCAECKRNFRTPALLKEHMDEGKHSPKQQRSSMRSAVKIMERTDCAICDKNFDSSDTLRRHIRTVHECDPDDIFGVEPHPSKRAKKDIESEEVVPVALNTSAGSLISSQTDGNGVVVREFLVDEGDGAAQTITLENETYTILPLDGAIEGEQLTDEAGVKPEAKKEEAQVSPVVKKEQRKSLAASLAAAIADNLEESCSEDDFSGEILTEEDIKLKENVGKLIDMLVDPPILKKYGWPNAPEETVLCKVIENCGHDLTKGGENYAELDYGSRMREYCKLLFTVVIHNDSIKSLLNNFPIDDVIEYVLGDEDQDEGGLDKDNESHSGDEEAVSVTGETKTNEIREKPEKKEVSAKSEKKEIVGKAVDKDNSEEVVRENKKKPVGEQEKA
B7: Adf1 (protein, UniProt P05552 1-262)
chain: MHTLTAAIEMDKLDANLEQQFDLNLIEAVKLNPVIYDRSHYNYKHFVRKAQTWKQIAETLGVPEQKCTKRWKSLRDKFAREMKLCQESRWRYFKQMQFLVDSIRQYRESLLGKCANGSQSANQVADPSQQQQAQQQTVVDIFAQPFNGSATTSAQALTHPHEITVTSDAQLATAVGKDQKPYFYEPPLKRERSEEEHSDNMLNTIKIFQNNVSQAVSAEDQSFGMVVTDMLNTLGVRQKAEAKVHIIKYLTDMQLLAQHNKY
B8: Hcf (protein, UniProt Q9V4C8 1-1500)
chain: MEGSDFVDPAFSSGERISASDLNSEHIIQAENHSFANRISMDMDVPDGHQLDSNLTGFRWKRVLNPTGPQPRPRHGHRAINIKELMVVFGGGNEGIVDELHVYNTVTNQWYVPVLKGDVPNGCAAYGFVVEGTRMFVFGGMIEYGKYSNELYELQATKWEWRKMYPESPDSGLSPCPRLGHSFTMVGEKIFLFGGLANESDDPKNNIPKYLNDLYILDTRGVHSHNGKWIVPKTYGDSPPPRESHTGISFATKSNGNLNLLIYGGMSGCRLGDLWLLETDSMTWSKPKTSGEAPLPRSLHSSTMIGNKMYVFGGWVPLVINDSKSTTEREWKCTNTLAVLDLETMTWENVTLDTVEENVPRARAGHCAVGIQSRLYVWSGRDGYRKAWNNQVCCKDLWYLEVSKPLYAVKVALVRASTHALELSWTATTFAAAYVLQIQKIEQPLNTSSKLLSNNIVQQGTPTSAETSGINISANRSGSALGLGVEATSTVLKLEKESLQLSGCQPETNVQPSVNDLLQSMSQPSSPASRADKDPLSSGGGTTFNLSTSVASVHPQISVISSTAAVTGNDTASPSGAINSILQKFRPVVTAVRTSTTTAVSIATSTSDPLSVRVPSTMSANVVLSSSSSTLRIVPSVTASHSLRIASSQASGNNCRSSSAINILKTALPNVAVQSQPTSSTTTSIGGKQYFIQKPLTLAPNVQLQFVKTSGGMTVQTLPKVNFTASKGTPPHGISIANPHLASGITQIQGSTVPGSQIQKPIVSGNVLKLVSPHTMAGGKLIMKNSNILQMGKVTPNVMGGKPAFVITNKQGTPLGNQQIIIVTTGGNVRSVPTSTVMTSAGGSASGTNIVSIVNSTSTTPSPLQALSGQKTLISNQSGVKMLRNISSVQASSSMAFGQKQSGTPIHQKTALYIGGKAVTVMSTNTSMAASGNKVMVLPGTSSNNSPATTTALSARKSFVFNAGGSPRTVTLATKSINAKSIPQSQPVTETNNHSVATIKDTDPMDDIIEQLDGAGDLLKLSESEGQHGSEENENNGENATSSSASALFTGGDTAGPSRAQNPIVMEHPVDIIEDVSGVSSTTDVNETAIVSGDTIESLKMSEKENDDVKSMGEKSILSDDCHQPTTSETEAATILTTIKSAEALVLETAEIRKDHTGCTIGSLKENQDENKKFKQRQESSPSQNIHQFQNVDGSQLEALASAALLQAATSDTTALALKELIERPESETNTRSSNIAEIQQNNVQSTLAVVVPNTSQNENQKWHTVGVFKDLSHTVTSYIDSNCISDSFFDGIDVDNLPDFSKFPRTNLEPGTAYRFRLSAINSCGRGEWGEISSFKTCLPGFPGAPSAIKISKDVKEGAHLTWEPPPAQKTKEIIEYSVYLAVKPTAKDKALSTPQLAFVRVYVGAANQCTVPNASLSNAHVDCSNKPAIIFRIAARNQKGYGPATQVRWLQDPAAAKQHTPTVTPNLKRGPEKSTIGSSNIANTFCSPHKRGRNGLHD

Protein sequences, listed by entry. Tags and fused reporters are not part of them. Lines headed by an entry give the natural chain unless they say otherwise; changes in a name come on top.
UniProt Q08605: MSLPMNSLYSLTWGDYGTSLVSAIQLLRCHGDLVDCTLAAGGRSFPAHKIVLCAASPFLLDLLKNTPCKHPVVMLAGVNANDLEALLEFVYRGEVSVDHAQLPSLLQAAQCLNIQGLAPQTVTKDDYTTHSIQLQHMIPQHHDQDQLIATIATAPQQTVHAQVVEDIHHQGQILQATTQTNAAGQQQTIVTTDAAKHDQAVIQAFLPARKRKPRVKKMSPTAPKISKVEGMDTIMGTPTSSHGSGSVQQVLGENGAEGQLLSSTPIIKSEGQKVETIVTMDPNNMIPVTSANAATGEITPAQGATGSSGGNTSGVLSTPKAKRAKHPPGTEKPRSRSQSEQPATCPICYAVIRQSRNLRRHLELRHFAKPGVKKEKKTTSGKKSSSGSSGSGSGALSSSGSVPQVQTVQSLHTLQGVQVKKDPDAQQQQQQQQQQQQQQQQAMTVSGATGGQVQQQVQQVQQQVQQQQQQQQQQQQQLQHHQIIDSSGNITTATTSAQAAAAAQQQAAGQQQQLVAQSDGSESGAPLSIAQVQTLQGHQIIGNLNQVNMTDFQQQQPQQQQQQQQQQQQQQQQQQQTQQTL

target: GAGA factor (GAF) (Drosophila melanogaster (endogenous in embryos)) (UniProt Q08605); assay: affinity purification with mass spectrometry; GAF polyclonal antibody coupled to protein A Sepharose; 10 mg nuclear extract of 0-12 h embryos, HEMG-150, 2 h; washed with HEMG-500 plus 0.1% Nonidet P-40; eluted with 0.1 M glycine pH 2.5; triplicate; mock: protein A Sepharose with no antibody

| binding | Binder |
| --- | --- |
| binds | B2 |
| binds | B3 |
| binds | B4 |
| binds | B5 |
| binds | B6 |
| binds | B7 |
| binds | B8 |

| Binder | binding |
| --- | --- |
| B1 | binds |

— publication PMC5351981
